In all, about 33,000 sequences were measured (“E-score (-0.5 to 0.5)”: median about -8e-05, highest 2% from about 0.23 on). The list shows a part of the results.
Molecular target: T1, Nrg2 (UniProt P38082)
T1 sequence: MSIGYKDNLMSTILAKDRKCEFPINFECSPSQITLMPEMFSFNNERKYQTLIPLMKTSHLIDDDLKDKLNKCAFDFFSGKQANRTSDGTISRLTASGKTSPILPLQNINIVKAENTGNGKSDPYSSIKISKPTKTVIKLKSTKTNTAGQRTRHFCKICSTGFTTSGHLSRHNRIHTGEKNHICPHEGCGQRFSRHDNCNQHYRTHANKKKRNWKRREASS
Experiment: PBM E-score (8-mer binding enrichment) (E-score (-0.5 to 0.5)); higher = stronger / more preferred TF binding
Conditions: protein concentration: 100 nM; construct: GST-full length
Method in brief: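 Each ungapped eight-base word and its reverse complement, pooled, received an E-score from the Universal PBM Analysis Suite. Underlying scans, normalised with masliner, recorded fluorescent anti-GST bound to GST-tagged yeast transcription factors. These were applied at about 100-200 nM to universal all-10-mer Agilent arrays double-stranded by primer extension.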

Compared with CAAGCTAA, AGACTCCG is lower in “PBM E-score” value: 0.0135 for the first, -0.115 for the second.

First: CATATCAG
Second: GATTGCGA
The “PBM E-score” value of the first is lower: 0.0379 for the first, 0.108 for the second.

Going from AGATTCTG to CGGTTGAC, the “PBM E-score” value rises from -0.11 to -0.0889.

First: CGTAAAGA
Second: CTGCTAGA
The “PBM E-score” value of the first is lower: -0.119 for the first, -0.0728 for the second.

Going from CAGACCCA to GCGTCCTA, the “PBM E-score” value falls from -0.0149 to -0.162.

Compared with CCCGGCCG, CAAAGCCA is higher in “PBM E-score” value: -0.128 for the first, -0.0355 for the second.

Compared with GGGTACCC, CATACATC is higher in “PBM E-score” value: -0.139 for the first, 0.00658 for the second.

First: CCCAGCAC
Second: AATACTGG
The “PBM E-score” value of the first is lower: -0.167 for the first, 0.137 for the second.

First: AGTACCTG
Second: CCATTCTA
The “PBM E-score” value of the first is higher: -0.0106 for the first, -0.087 for the second.

First: ACTTCGTG
Second: AGCTACAT
The “PBM E-score” value of the first is higher: 0.123 for the first, 0.0247 for the second.

Compared with ACGCGGCT, TATCGTCA is higher in “PBM E-score” value: -0.152 for the first, -0.0105 for the second.

Going from CGAAAATC to CGAGATCA, the “PBM E-score” value rises from 0.163 to 0.22.

Compared with CATTGCCA, CCACTCCA is lower in “PBM E-score” value: -0.0171 for the first, -0.0999 for the second.

Compared with CCGCGTGA, CTTCGGGA is lower in “PBM E-score” value: 0.0878 for the first, -0.0162 for the second.

First: AGCCGACG
Second: TCAAGCAA
The “PBM E-score” value of the first is higher: -0.096 for the first, -0.119 for the second.

Going from AAGCGATT to GAATGGTC, the “PBM E-score” value falls from -0.0219 to -0.0983.

Going from ACAATGGT to CCATAGTC, the “PBM E-score” value rises from -0.136 to -0.0356.

First: ACCTGTAC
Second: ATTCCAGG
The “PBM E-score” value of the first is lower: -0.153 for the first, 0.0983 for the second.

Going from AACCCCAA to GATAAGTA, the “PBM E-score” value falls from 0.147 to -0.0181.

Compared with CCCGTCCA, AGACCTCG is higher in “PBM E-score” value: -0.205 for the first, -0.0314 for the second.

Going from CCCGCATC to GATCCGCA, the “PBM E-score” value rises from -0.122 to -0.0105.

Going from CCTGACAA to CGAACGAC, the “PBM E-score” value falls from 0.18 to 0.107.

First: CCAGGGTC
Second: AGGCTGTC
The “PBM E-score” value of the first is higher: 0.392 for the first, -0.0238 for the second.

Going from TACGGCAA to ATGGCTAC, the “PBM E-score” value falls from 0.215 to -0.0815.

Going from CAAGCGTC to AGGCGGGA, the “PBM E-score” value falls from 0.0678 to -0.145.

Going from CATGCGGG to GAGACATC, the “PBM E-score” value falls from 0.0834 to -0.0167.

Compared with GACTACTA, CTATAAGC is lower in “PBM E-score” value: 0.0184 for the first, -0.0947 for the second.

Compared with AAGAAAAT, CGCAATCA is higher in “PBM E-score” value: 0.0731 for the first, 0.122 for the second.

First: CAGGTACG
Second: GCTGCGTA
The “PBM E-score” value of the first is lower: -0.192 for the first, -0.0165 for the second.

Going from CAGGTGTA to GCGCGGAA, the “PBM E-score” value rises from -0.0459 to 0.116.

Compared with GAGACGCA, GTCCAATA is higher in “PBM E-score” value: -0.0416 for the first, 0.0483 for the second.

First: GAAGGGCC
Second: CAGTGAAC
The “PBM E-score” value of the first is lower: 0.0555 for the first, 0.248 for the second.

First: ACTTTCAA
Second: GTAACCAA
The “PBM E-score” value of the first is higher: 0.137 for the first, 0.0617 for the second.

Compared with GATAAGAC, GACGTAAA is higher in “PBM E-score” value: -0.0464 for the first, 0.0194 for the second.

Going from ACACCGGA to GCCTGCGC, the “PBM E-score” value falls from -0.0337 to -0.0715.

Going from ACGCAGTA to CTCTGCTA, the “PBM E-score” value falls from -0.088 to -0.199.

Compared with CCGTGAGA, GGATGTCA is higher in “PBM E-score” value: -0.188 for the first, 0.178 for the second.

Compared with ATGCTCAA, ATCACTGG is higher in “PBM E-score” value: -0.0666 for the first, 0.0147 for the second.

Compared with CACGTTTC, ATCTTGCG is higher in “PBM E-score” value: -0.125 for the first, -0.0421 for the second.

Going from GGACACAA to CAGTCGCG, the “PBM E-score” value falls from 0.224 to 0.0776.

First: ATAGCGGG
Second: CCTACCAC
The “PBM E-score” value of the first is higher: -0.0613 for the first, -0.157 for the second.

First: CATCATAG
Second: ATGGGAAC
The “PBM E-score” value of the first is higher: 0.0749 for the first, 0.00554 for the second.

First: ATTCCGAA
Second: CCCTATCG
The “PBM E-score” value of the first is lower: 0.0901 for the first, 0.0966 for the second.

Going from ACTTAGTC to CACGGAAC, the “PBM E-score” value rises from -0.0921 to 0.141.

Compared with GCATCTAA, CGTATAGA is lower in “PBM E-score” value: 0.0997 for the first, -0.0185 for the second.

Going from AGAAAGGC to TCTAGCAA, the “PBM E-score” value rises from -0.0703 to 0.139.

Going from CGTCCTTC to ACTGTAAG, the “PBM E-score” value rises from -0.0462 to 0.0693.

Compared with ACTTAAAT, CGCCCACC is higher in “PBM E-score” value: -0.0858 for the first, -0.0493 for the second.

First: TCGTAGCA
Second: GTGTTAAC
The “PBM E-score” value of the first is higher: 0.109 for the first, -0.0395 for the second.

First: TATAGTGA
Second: GGAGAGAC
The “PBM E-score” value of the first is higher: -0.122 for the first, -0.179 for the second.

Compared with ATAAAGAT, GCCCTACA is lower in “PBM E-score” value: 0.0728 for the first, 0.021 for the second.

Going from ACTTAGAC to AGCTTGTA, the “PBM E-score” value falls from 0.0437 to -0.00311.

First: CTATGCGC
Second: AGCTCCTA
The “PBM E-score” value of the first is higher: 0.2 for the first, -0.176 for the second.

First: TCTGATCA
Second: GAGGGCTA
The “PBM E-score” value of the first is higher: -0.00902 for the first, -0.252 for the second.

Going from GAGCATCA to TCTCGCAA, the “PBM E-score” value rises from -0.112 to -0.0499.

Compared with GCTTTTCC, AGTAAGCA is lower in “PBM E-score” value: -0.0446 for the first, -0.203 for the second.

First: CAACCTTC
Second: ACTTTGAT
The “PBM E-score” value of the first is higher: 0.00135 for the first, -0.0142 for the second.

Going from GAGTGTTA to AAAGTACA, the “PBM E-score” value rises from 0.00753 to 0.121.

First: ACATCCAC
Second: AGCCGTCC
The “PBM E-score” value of the first is lower: -0.0593 for the first, 0.00267 for the second.

Going from GGTGCTGA to AATGGTAC, the “PBM E-score” value rises from -0.16 to -0.0589.

First: AAAAATAG
Second: ACGGTGCT
The “PBM E-score” value of the first is higher: 0.0397 for the first, -0.23 for the second.

Going from CGGCAAGA to CCGGGTCG, the “PBM E-score” value falls from 0.00707 to -0.0464.

Going from GGCACTAA to AGGATGAT, the “PBM E-score” value falls from 0.134 to 0.0595.

First: ACCGGATG
Second: GGCATCCC
The “PBM E-score” value of the first is higher: -0.0549 for the first, -0.253 for the second.

First: GGCTCAGA
Second: CGACGCGA
The “PBM E-score” value of the first is higher: 0.0626 for the first, -0.0343 for the second.

First: ACTAGCAA
Second: CGTGGTGA
The “PBM E-score” value of the first is higher: 0.0254 for the first, -0.282 for the second.

First: CCACACAA
Second: CATCCAGA
The “PBM E-score” value of the first is higher: 0.0363 for the first, -0.127 for the second.

Compared with ACCCGATA, AGCCCACT is lower in “PBM E-score” value: -0.0189 for the first, -0.0594 for the second.

First: CGGCGCGA
Second: CCACGCCA
The “PBM E-score” value of the first is higher: 0.121 for the first, -0.0242 for the second.

First: GCTGGTAC
Second: ACGCGGAC
The “PBM E-score” value of the first is lower: -0.177 for the first, 0.0191 for the second.

Compared with CTTGTAGC, AGCCCCCT is lower in “PBM E-score” value: 0.132 for the first, -0.3 for the second.

First: GTCGTAGA
Second: AATTTATC
The “PBM E-score” value of the first is lower: 0.0343 for the first, 0.312 for the second.

First: AGTAAAGA
Second: ACCTGGAC
The “PBM E-score” value of the first is higher: 0.13 for the first, -0.137 for the second.

First: AATCGGAG
Second: CTAGATAC
The “PBM E-score” value of the first is lower: 0.105 for the first, 0.147 for the second.

First: AAAACTAT
Second: CAAGACAA
The “PBM E-score” value of the first is lower: 0.0045 for the first, 0.127 for the second.

First: GGGTGCCA
Second: TGCTCCCA
The “PBM E-score” value of the first is higher: 0.0209 for the first, -0.0553 for the second.

Compared with AGCCACCG, CTAGGTCC is higher in “PBM E-score” value: -0.196 for the first, 0.0627 for the second.

Compared with GAACACCC, GCGACAGA is higher in “PBM E-score” value: -0.128 for the first, 0.238 for the second.

Compared with CTACAAAA, GCAGCTGA is lower in “PBM E-score” value: 0.0553 for the first, 0.0488 for the second.

Compared with AATCTTTG, AGGTAAAA is lower in “PBM E-score” value: 0.0327 for the first, -0.00652 for the second.

Compared with TTGTACAA, GAAGTCGA is higher in “PBM E-score” value: 0.0871 for the first, 0.139 for the second.

First: AACTGTTG
Second: GATTCCCC
The “PBM E-score” value of the first is higher: -0.00214 for the first, -0.148 for the second.

First: ATGGTTTG
Second: AAGCCGCA
The “PBM E-score” value of the first is higher: 0.0204 for the first, -0.0098 for the second.

Compared with ATAGCAGA, GCTCTCAA is higher in “PBM E-score” value: 0.0143 for the first, 0.047 for the second.

First: AGCCAAGC
Second: CTGGTACA
The “PBM E-score” value of the first is lower: -0.156 for the first, -0.0315 for the second.

First: GGGGACTA
Second: GGGAACCA
The “PBM E-score” value of the first is higher: -0.0994 for the first, -0.231 for the second.
